Reference: PubChem BioAssay AID743255 (National Center for Advancing Translational Sciences (NCATS), 2014)
Among all 390,000 compounds or so, about 910 (0.23%) were called active. Inconclusive means that the source gave no clear call. Such entries were picked first, then a sample of the others. Calls come from the whole dose curve; as a rule, active = well fitted inhibition curve with a large enough effect; inconclusive = small, poorly fitted or top-dose-only effect; inactive = no such curve, though single readings can be large or run the other way. Where the call is inconclusive, the potency comes from a doubtful curve fit.

Protein sequences, listed by entry. Tags and fused reporters are not part of them. Lines headed by an entry give the natural chain unless they say otherwise; changes in a name come on top.
UniProt O94782: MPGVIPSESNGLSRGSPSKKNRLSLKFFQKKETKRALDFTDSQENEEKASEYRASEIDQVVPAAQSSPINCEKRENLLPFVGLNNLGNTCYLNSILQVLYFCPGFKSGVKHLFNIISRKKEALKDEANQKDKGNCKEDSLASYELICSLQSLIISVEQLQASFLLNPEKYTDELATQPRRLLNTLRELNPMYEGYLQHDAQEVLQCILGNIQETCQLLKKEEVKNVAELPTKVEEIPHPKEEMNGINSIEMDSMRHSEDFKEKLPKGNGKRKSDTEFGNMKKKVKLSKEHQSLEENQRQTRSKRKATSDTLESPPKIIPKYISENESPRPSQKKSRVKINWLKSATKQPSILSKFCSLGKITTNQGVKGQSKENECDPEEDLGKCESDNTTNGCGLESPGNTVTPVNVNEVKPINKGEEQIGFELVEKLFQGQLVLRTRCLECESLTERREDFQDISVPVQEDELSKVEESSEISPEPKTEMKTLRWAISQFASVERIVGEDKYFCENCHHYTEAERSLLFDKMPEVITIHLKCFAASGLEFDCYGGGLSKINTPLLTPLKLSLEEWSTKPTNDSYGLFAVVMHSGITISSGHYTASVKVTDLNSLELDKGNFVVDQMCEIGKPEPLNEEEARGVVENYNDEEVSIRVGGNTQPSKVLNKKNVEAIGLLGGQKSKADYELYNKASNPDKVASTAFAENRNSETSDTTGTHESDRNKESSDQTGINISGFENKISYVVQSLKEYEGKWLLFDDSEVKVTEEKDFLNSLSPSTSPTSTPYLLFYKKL

These compounds were tested against Ubiquitin carboxyl-terminal hydrolase 1 (Homo sapiens) (UniProt O94782) (assay: Inhibitors of USP1/UAF1: Primary Screen). Conditions: recombinant USP1/UAF1, Ub-Rhodamine cleavage fluorescence; activity change, negative = inhibition: at 57.1 µM (top of the series).
Method in brief: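 USP1/UAF1 complex at 1 nM was preincubated with compound for 15 min at room temperature, then Ub-Rho substrate (150nM final) was added. Fluorescence (480/540 nm) was read kinetically, 6 reads every 60 seconds.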
% is set by controls: 0 for no effect and ±100 for the full control effect; potency is the fitted concentration of half-maximal effect.
Note: nearly all actives have a fitted effect of over 60% in size.

Potency, inconclusive:
Cc1ccc(S(=O)(=O)CC(=O)Nc2ncc([N+](=O)[O-])s2)cc1 4.47 µM [inhibitor, partial curve]
Cc1ccc2nc3c(cc(C#N)c(=O)n3-c3nnc(SCc4ccc(F)cc4)s3)c(=O)n2c1 14.1 µM [inhibitor, partial curve, poor fit]
CCOC(=O)/C=C1/SCC(=O)N1CC(=O)Nc1ccc2c(c1)CCC2 12.6 µM [inhibitor, partial curve]
COc1cccc(NC(=O)CSc2nc(=O)n(Cc3cccnc3)c3c2CCC3)c1 10 µM [inhibitor, partial curve, poor fit]
CCOc1ccc(CC(=O)NCC2(N3CCCCC3)CCCCC2)cc1 4.47 µM [inhibitor, partial curve]
COc1ccc(OC)c(C2C(C(=O)Nc3ccc(C)cc3C)=C(C)Nc3c(C(=O)Nc4ccc(F)cc4)cnn32)c1 (centres undefined) 12.6 µM [inhibitor, partial curve, poor fit]
Cc1cc(Nc2cccc(C(F)(F)F)c2)nc2ccc(NC(=O)Cc3ccc(Cl)cc3)cc12 0.316 µM [inhibitor, full curve, poor fit]
CC(C)COc1ccc(/C(=N/O)c2ccccc2)cc1 25.1 µM [inhibitor, partial curve]
COc1ccc(-c2nnc(SCC(N)=O)n2N)cc1 50.1 µM [inhibitor, partial curve, poor fit]
[O-]/C(=C(\C(=S)Nc1cccc2ccccc12)[n+]1ccccc1)c1ccc2c(c1)OCCO2 28.2 µM [inhibitor, partial curve]
O=C(N/N=C\c1c(O)ccc2ccccc12)c1ccc(S(=O)(=O)N2CCCCC2)cc1 6.31 µM [inhibitor, partial curve, poor fit]
Cc1ccc(NC(=O)n2ccc(-c3ccc(-n4ccnc4)cc3)n2)cc1 31.6 µM [inhibitor, partial curve]
CCCC(C(=O)NC1CCCC1)N(Cc1ccc2c(c1)OCO2)C(=O)c1snc(C(N)=O)c1N (centres undefined) 35.5 µM [inhibitor, single point]
CCN(CC)c1ccc2cc(-c3nnc(Nc4ccc(C)cc4)s3)c(=O)oc2c1 4.47 µM [inhibitor, partial curve, poor fit]
Cc1ccc(-n2c(O)c(C=Nc3ccccc3-c3n[nH]c(=S)[nH]c3=O)c3ccccc3c2=O)cc1C 35.5 µM [inhibitor, partial curve, poor fit]
COCc1ccc(C(=O)N2CCc3c([nH]c4ccccc34)C2c2ccccn2)s1 (centres undefined) 2.24 µM [inhibitor, full curve]
Cc1csc2nc(CNS(=O)(=O)c3ccc(-c4ccccc4)cc3)cn12 39.8 µM [inhibitor, partial curve]
Cc1nn(-c2ccccc2)c2sc(C(=O)Nc3ccc(Cl)cc3Cl)cc12 1 µM [inhibitor, full curve]
COc1ccccc1C(c1c(O)cc(C)n(Cc2ccco2)c1=O)N1CCCCC1 (centres undefined) 2.51 µM [inhibitor, full curve, poor fit]
NS(=O)(=O)c1ccc(N=Nc2c(=O)[nH]n3c(=O)c4c([nH]c23)CCCC4)cc1 35.5 µM [inhibitor, partial curve, poor fit]
Cc1nc2c(c(C)c1CCC(=O)NCc1ccc(F)cc1)c(=O)n(C)c(=O)n2C 12.6 µM [inhibitor, partial curve, poor fit]
Cc1cc(NC(=O)OC2CCCCC2)ccc1[N+](=O)[O-] 39.8 µM [inhibitor, partial curve, poor fit]
CCc1ccc(/C=C2\Oc3c(ccc(O)c3CN3CCN(C)CC3)C2=O)cc1 31.6 µM [inhibitor, single point]
CCOc1ccc(NC(=O)CN(C)C(=O)C2COc3ccccc3O2)cc1OCC (centres undefined) 50.1 µM [inhibitor, partial curve, poor fit]
CCOC(=O)C1CCCN(S(=O)(=O)c2cc(-c3onc(C)c3C)ccc2OC)C1 (centres undefined) 1 µM [inhibitor, full curve, poor fit]
O=C(CSc1nc2ccccc2c(=O)[nH]1)Nc1ccc([N+](=O)[O-])cc1 5.62 µM [inhibitor, partial curve]
COc1ccc(C2=NS(=O)(=O)N(C)C(C(=O)Nc3ccc(C(C)=O)cc3)=C2)cc1OC 5.62 µM [inhibitor, partial curve]
CCOC(=O)c1ccc(NS(=O)(=O)c2cn(C)cn2)cc1 39.8 µM [inhibitor, partial curve]
COc1ccc(NCc2cc3cc4c(cc3n(CC(=O)Nc3ccc(C)cc3C)c2=O)OCO4)cc1 28.2 µM [inhibitor, partial curve]
CC(C)(C)N=C1NN=C(c2cc3ccccc3o2)CS1 3.55 µM [inhibitor, full curve, poor fit]

Quoted at random: two entries already listed.
Potency, inconclusive:
CCOc1ccc(CC(=O)NCC2(N3CCCCC3)CCCCC2)cc1 4.47 µM [inhibitor, partial curve]
CCOc1ccc(NC(=O)CN(C)C(=O)C2COc3ccccc3O2)cc1OCC (centres undefined) 50.1 µM [inhibitor, partial curve, poor fit]

Next part.

Activity change, negative = inhibition, inactive:
COc1ccc(/C=C/CN2CCC(CO)(Cc3ccccc3Cl)CC2)cc1 -17.1%
CC(C)NCC(O)c1ccc(O)c(O)c1 (centres undefined) -27.7%
COc1ccc(Cl)cc1NC(=O)CSc1nc(=O)n(Cc2ccco2)c2c1CCC2 -25%
O=C(CCCN=C1NS(=O)(=O)c2ccccc21)OCC(=O)c1ccc(F)cc1 -1.13%
Cc1ccc2[nH]c(=O)c(C(c3nnnn3C3CCCC3)N3CCCc4ccccc43)cc2c1 (centres undefined) -28.1%
COC(=O)C1=C(C)OC(N)=C(C#N)C1c1ccccc1F (centres undefined) -17.1%
CNS(=O)(=O)c1ccc(NC(=O)C2c3ccccc3Oc3ccccc32)cc1 -0.35%
CCOc1ccccc1N1CCN(C(=O)Nc2ccc(F)c(Cl)c2)CC1 -7.96%

Activity change, negative = inhibition, inconclusive:
CCCCCCN1C=CC=C/C1=C/C=C(C#N)C#N -29.7% [inhibitor]
